Taken from: PubChem BioAssay AID1224830 (NIAID, 2016)
The whole screen tested about 18,000 reagents; shown is an unselected part. About 2,900 of all reagents (16%) were called active. 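Calls are made per well; low scores hint the gene aids the LPS response, high scores that it dampens it.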 Repeated entries: four replicate wells of each siRNA pool. Reagent sequences are not shown.

Test: 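Host factors that control LPS-induced TNF expression in human macrophages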 (primary screen)
System: human THP-1 monocytic leukaemia cells, TNF dual-luciferase reporter clone, PMA-differentiated to macrophage-like cells
Reagent: siRNA pool against human genes, 50 nM
Time to read-out: LPS for 4 h, given about 3 days after siRNA transfection
Challenge: bacterial LPS (TLR4 ligand), 10 ng/ml
Measurement: 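TNF firefly reporter luminescence divided by renilla, normalised to the plate median, then turned into a robust z-score for each replicate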
Reading the numbers: TNF reporter robust z-score: higher = stronger TNF reporter response to LPS
Rule for the call: 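Each well counts as active if its z-score is over 2.8 or under -1.5; controls are left without a call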

Gene	TNF reporter robust z-score	call
INSL6	-0.6	inactive
INSL6	-1.22	inactive
INSL6	-0.83	inactive
INSL6	-0.57	inactive
MEIOC	0.03	inactive
MEIOC	-0.04	inactive
MEIOC	0.33	inactive
MEIOC	-0.57	inactive
FBXO15	0.53	inactive
FBXO15	2.67	inactive
FBXO15	-0.89	inactive
FBXO15	1.95	inactive
SLC61A1	-0.35	inactive
SLC61A1	-1.06	inactive
SLC61A1	-1.12	inactive
SLC61A1	-0.27	inactive
KLHL18	1.25	inactive
KLHL18	-0.05	inactive
KLHL18	-0.56	inactive
KLHL18	-0.35	inactive
SHQ1	-0.35	inactive
SHQ1	2.3	inactive
SHQ1	-0.14	inactive
SHQ1	0.99	inactive
SMNDC1	-0.66	inactive
SMNDC1	-0.81	inactive
SMNDC1	-0.75	inactive
SMNDC1	-0.55	inactive
SEC22B	-0.83	inactive
SEC22B	0.22	inactive
SEC22B	0.38	inactive
SEC22B	1.17	inactive
CEP120	2.68	inactive
CEP120	1.79	inactive
CEP120	1.12	inactive
CEP120	1.33	inactive
MDFIC	0.27	inactive
MDFIC	0.61	inactive
MDFIC	0.68	inactive
MDFIC	1.26	inactive
NKRF	5.65	active
NKRF	4.24	active
NKRF	1.78	inactive
NKRF	0.96	inactive
INTS15	-0.34	inactive
INTS15	-0.44	inactive
INTS15	-0.71	inactive
INTS15	0.89	inactive
FUT4	-0.93	inactive
FUT4	-0.2	inactive
FUT4	-0.76	inactive
FUT4	-0.12	inactive
RSPH3	0.77	inactive
RSPH3	1.28	inactive
RSPH3	0	inactive
RSPH3	1.19	inactive
TARBP2	0.25	inactive
TARBP2	1.14	inactive
TARBP2	0.12	inactive
TARBP2	0.66	inactive
RABL2B	-1.09	inactive
RABL2B	0.06	inactive
RABL2B	-0.82	inactive
RABL2B	-1.18	inactive
SST	4.2	active
SST	1.27	inactive
SST	1.43	inactive
SST	-0.77	inactive
SP8	0.64	inactive
SP8	1.04	inactive
SP8	0.94	inactive
SP8	0.13	inactive
TXNDC9	-0.4	inactive
TXNDC9	0.66	inactive
TXNDC9	-0.14	inactive
TXNDC9	0.19	inactive
